This test has as its system L1210 leukemia ip in BDF1 mice, survival T/C. Nature of the test: NCI In Vivo Anticancer Drug Screen. Data for tumor model L1210 Leukemia (intraperitoneal) in B6D2F1 (BDF1) mice. The note with it: higher T/C = longer survival.
Setting [1] is: T/C endpoint: mean survival time, dose: 100.0 mg/kg/injection, schedule: Q01DX009 (ip), vehicle: saline with Tween-80.
[2] abbreviates: T/C endpoint: mean survival time, dose: 200.0 mg/kg/injection, schedule: Q01DX009 (ip), vehicle: saline with Tween-80.
[3] abbreviates: T/C endpoint: mean survival time, dose: 400.0 mg/kg/injection, schedule: Q04DX003 (ip), vehicle: saline with Tween-80.
The mark [4] stands for this setting: T/C endpoint: mean survival time, dose: 200.0 mg/kg/injection, schedule: Q01DX009 (ip), vehicle: saline.
Setting [5] is: T/C endpoint: mean survival time, dose: 150.0 mg/kg/injection, schedule: Q01DX009 (ip), vehicle: saline.
The mark [6] stands for this setting: T/C endpoint: mean survival time, dose: 400.0 mg/kg/injection, schedule: Q01DX009 (ip), vehicle: Klucel (hydroxypropylcellulose) (HPC).

Structures are written as SMILES. The list does not hold the whole screen: it is rich in T/C values a quarter to a half above the control, in often repeated tests (any T/C) and in doses without a T/C. Other doses and runs of a compound stand elsewhere. T/C is the treated group as % of the vehicle group. Some entries give survivors of the animals treated and no T/C: the source files T/C as zero there, which appears to mark a toxic dose or a test without result, not a measured value. Some doses without a T/C left all or most animals alive at the check, yet need not have been tolerated: survival well below the control is almost never listed, so the zero probably covers shortened survival too. Survivors were counted at the toxicity check, usually on the fifth day, unless a day is given; later deaths do not show. Schedule codes are those of the source, read here as Q, the interval in days (D) or hours (H), X, the number of doses. Some schedules carry Z or #; the key to these is not given. For survival time, the PubChem record calls one and a half times the control and up active, and a quarter to a half above the control has no call in these data; cut-offs in other NCI protocols can differ. Some T/C values carry the count of animals alive at the toxicity check (mostly the fifth day); without a count, all were alive then.

With `O=C1CCCCc2c1ccc(O)c2[N+](=O)[O-]`, the survivor count under setting [1] was 3 of 3 and the survivor count under setting [2] is recorded as 0 of 3.

On to `COc1cccc2c1C(=O)c1c(O)c3c(c(O)c1C2=O)CC(O)(C(=O)CO)CC3OC1CC(N)C(O)C(C)O1` (stereo not given), for which the T/C reads like this: (T/C endpoint: mean survival time, dose: 0.25 mg/kg/injection, schedule: Q01DX008 (ip), vehicle: saline) 141 % of control; (T/C endpoint: median survival time, dose: 2.4 mg/kg/injection, schedule: Q01DX005 (ip), vehicle: water) 133 % of control; (T/C endpoint: median survival time, dose: 4.0 mg/kg/injection, schedule: Q01DX005 (ip), vehicle: water) 133 % of control; (T/C endpoint: median survival time, dose: 6.6 mg/kg/injection, schedule: Q04DX003 (ip), vehicle: water) 133 % of control; (T/C endpoint: median survival time, dose: 11.0 mg/kg/injection, schedule: Q01DX005 (ip), vehicle: water) 142 % of control; (T/C endpoint: median survival time, dose: 11.0 mg/kg/injection, schedule: Q04DX003 (ip), vehicle: water) 138 % of control [9 of 10 alive]. In addition, the T/C (T/C endpoint: median survival time, dose: 19.0 mg/kg/injection, schedule: Q01DX005 (ip), vehicle: water) was 142 % of control; the T/C (T/C endpoint: median survival time, dose: 21.0 mg/kg/injection, schedule: Q01DX005 (ip), vehicle: other, evaluated on day 5) was 132 % of control; the T/C (T/C endpoint: median survival time, dose: 21.0 mg/kg/injection, schedule: Q01DX005 (ip), vehicle: other, evaluated on day 31) is 132 % of control; the T/C (T/C endpoint: median survival time, dose: 31.0 mg/kg/injection, schedule: Q01DX005 (ip), vehicle: other, evaluated on day 5) is 126 % of control; the T/C (T/C endpoint: median survival time, dose: 31.0 mg/kg/injection, schedule: Q01DX005 (ip), vehicle: other, evaluated on day 31) is 126 % of control; the T/C (T/C endpoint: median survival time, dose: 31.0 mg/kg/injection, schedule: Q01DX005 (ip), vehicle: water) is 147 % of control. Also, the T/C reads like this: (T/C endpoint: median survival time, dose: 31.0 mg/kg/injection, schedule: Q04DX003 (ip), vehicle: water) 138 % of control; (T/C endpoint: median survival time, dose: 41.0 mg/kg/injection, schedule: Q01DX005 (ip), vehicle: other, evaluated on day 5) 127 % of control; (T/C endpoint: median survival time, dose: 41.0 mg/kg/injection, schedule: Q01DX005 (ip), vehicle: other, evaluated on day 31) 127 % of control; (T/C endpoint: median survival time, dose: 52.0 mg/kg/injection, schedule: Q04DX003 (ip), vehicle: water) 147 % of control. Moreover, for the setting “T/C endpoint: mean survival time, dose: 8.0 mg/kg/injection, schedule: Q01DX008 (ip), vehicle: saline”, the survivor count is given as 8 of 8.

As to `Nc1ccc(C(=O)O)c(O)c1.Nc1ccc(C(=O)O)c(O)c1.[Na+].[O]=[V]`, the survivor count (T/C endpoint: mean survival time, dose: 64.0 mg/kg/injection, schedule: Q01DX015 (ip), vehicle: carboxymethylcellulose (CMC)) was 0 of 6.

In the case of `Cc1ncc(CCl)c(CCl)c1O`, the survivor count (T/C endpoint: mean survival time, dose: 400.0 mg/kg/injection, schedule: Q04DX003 (ip), vehicle: saline) is given as 1 of 6.

In the case of `Cc1cccc(NC(=O)c2ccccc2)n1`, the survivor count runs as follows: under setting [1], 3 of 6; under setting [2], 2 of 6; (T/C endpoint: mean survival time, dose: 400.0 mg/kg/injection, schedule: Q01DX009 (ip), vehicle: saline with Tween-80) 0 of 6.

With `NCc1ccc(NC(=O)c2ccc(C(=O)Nc3ccc(CN)cc3)cc2)cc1`, the survivor count is, setting by setting: (T/C endpoint: mean survival time, dose: 56.0 mg/kg/injection, schedule: Q01DX Z (ip), vehicle: water) 1 of 6; (T/C endpoint: mean survival time, dose: 112.0 mg/kg/injection, schedule: Q01DX Z (ip), vehicle: water) 0 of 6; (T/C endpoint: mean survival time, dose: 225.0 mg/kg/injection, schedule: Q01DX Z (ip), vehicle: water) 0 of 6; (T/C endpoint: mean survival time, dose: 450.0 mg/kg/injection, schedule: Q01DX Z (ip), vehicle: water) 0 of 6.

For the molecule `Cc1cc(C)c(C)[nH]1`, the survivor count is 1 of 6 (T/C endpoint: mean survival time, dose: 25.0 mg/kg/injection, schedule: Q01DX009 (ip), vehicle: water); 2 of 6 (T/C endpoint: mean survival time, dose: 100.0 mg/kg/injection, schedule: Q01DX009 (ip), vehicle: water); 0 of 6 (T/C endpoint: mean survival time, dose: 200.0 mg/kg/injection, schedule: Q01DX009 (ip), vehicle: water); 0 of 6 (T/C endpoint: mean survival time, dose: 400.0 mg/kg/injection, schedule: Q01DX009 (ip), vehicle: water).

As for `Cc1ccc([N+](=O)[O-])cc1NC(=O)Oc1ccc(Cl)cc1Cl`, under setting [3], the survivor count is 3 of 6.

`Cn1cc(NC(=O)c2cc(NC(=O)c3cc(NC=O)cn3C)cn2C)cc1C(=O)NCCC(=N)N`: the survivor count by setting is: (T/C endpoint: mean survival time, dose: 100.0 mg/kg/injection, schedule: Q01DX009 (ip), vehicle: saline) 6 of 6; under setting [4], 2 of 6; (T/C endpoint: mean survival time, dose: 400.0 mg/kg/injection, schedule: Q01DX009 (ip), vehicle: saline) 0 of 6.

For the molecule `Cc1ccc2c(ccc(C)[n+]2C)c1`, the T/C is, setting by setting: (T/C endpoint: mean survival time, dose: 75.0 mg/kg/injection, schedule: Q01DX009 (ip), vehicle: acetone) 132 % of control; under setting [5], 133 % of control. Besides, the survivor count under setting [5] is 3 of 6; the survivor count (T/C endpoint: mean survival time, dose: 300.0 mg/kg/injection, schedule: Q01DX009 (ip), vehicle: acetone) is on record as 0 of 6; the survivor count (T/C endpoint: mean survival time, dose: 300.0 mg/kg/injection, schedule: Q01DX009 (ip), vehicle: saline) is 0 of 6.

Regarding `Cc1c2cnccc2c(C)c2c1c1ccccc1n2CCCl`, the T/C runs as follows: (T/C endpoint: mean survival time, dose: 125.0 mg/kg/injection, schedule: Q01DX009 (ip), vehicle: saline with Tween-80) 140 % of control; (T/C endpoint: mean survival time, dose: 250.0 mg/kg/injection, schedule: Q01DX009 (ip), vehicle: saline with Tween-80) 140 % of control.

For `CCCCSCCSC(=N)N`, the survivor count (T/C endpoint: mean survival time, dose: 100.0 mg/kg/injection, schedule: Q04DX002 (ip), vehicle: saline) is 0 of 3; the survivor count (T/C endpoint: mean survival time, dose: 200.0 mg/kg/injection, schedule: Q04DX002 (ip), vehicle: saline) is reported as 0 of 3; the survivor count (T/C endpoint: mean survival time, dose: 400.0 mg/kg/injection, schedule: Q04DX002 (ip), vehicle: saline) is reported as 0 of 3.

For the molecule `CCCc1cc2c(cc1CS(=O)(=O)c1ccccc1)OCO2`, the survivor count (T/C endpoint: mean survival time, dose: 200.0 mg/kg/injection, schedule: Q01DX009 (ip), vehicle: Klucel (hydroxypropylcellulose) (HPC)) is 6 of 6. For the same molecule, under setting [6], the T/C is 136 % of control and the survivor count is 1 of 6.

As to `CN(C)C(=O)Sc1c(Cl)cc(S(=O)(=O)F)cc1Cl`, the survivor count is on record as 6 of 6 (T/C endpoint: mean survival time, dose: 100.0 mg/kg/injection, schedule: Q01DX009 (ip), vehicle: Klucel (hydroxypropylcellulose) (HPC)) and 6 of 6 under setting [6].

Turning to `BrCC1CCCCO1` (stereo not given), the survivor count (T/C endpoint: mean survival time, dose: 100.0 mg/kg/injection, schedule: Q04DX003 (ip), vehicle: saline with Tween-80) is 0 of 6; the survivor count (T/C endpoint: mean survival time, dose: 200.0 mg/kg/injection, schedule: Q04DX003 (ip), vehicle: saline with Tween-80) was 0 of 6; the survivor count under setting [3] was 0 of 6.

As to `C=C(Cl)CSC(=S)N(C)C`, the survivor count under setting [4] is listed as 2 of 3.

For the origin of these results see PubChem BioAssay AID248 (DTP/NCI, 2004).
